In PubChem BioAssay AID504467 (National Center for Advancing Translational Sciences (NCATS), 2011):
Out of some 330,000 compounds screened, about 7,700 (2.3%) were called active. Inconclusive results, whose numbers are uncertain, are shown with a selection of clear calls. Calls come from the whole dose curve; as a rule, active = well fitted inhibition curve with a large enough effect; inconclusive = small, poorly fitted or top-dose-only effect, or effect the other way; inactive = flat fitted curve, though single readings scatter. A potency beside an inconclusive call is a rough fit, not a confirmed value.
Potency is the fitted concentration of half-maximal effect.

Assay: qHTS screen for small molecules that inhibit ELG1-dependent DNA repair in human embryonic kidney (HEK293T) cells expressing luciferase-tagged ELG1; note: nearly all actives have a fitted effect of over 55% in size
Settings: HEK293T ELG1-luciferase reporter, luminescence, 16 h, DNA damage induced by 5-fluorouridine; series mostly up to 46.1 µM
How it was run: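 DMSO vehicle served as the neutral condition. Each well held 2,000 cells given 5-fluorouridine plus compound; after 16 hr at 37 °C/5% CO2, ONE-Glo was added and luciferase measured 30 min later.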
In the case of `Fc1cccc(C2NN=C(c3ccccc3)S2)c1` (stereo unspecified), the Potency is reported as inconclusive: 2.06 µM [activator, full curve]. With `CCOc1ccccc1NC(=O)Cn1c(=O)n(-c2ccccc2)c(=O)c2oc3ccccc3c21` the Potency was “inactive”. In the case of `CCOc1ccccc1N1CCN(C(=O)c2cccc(-c3ccc(O)cc3)c2)CC1`, the Potency is reported as inconclusive: 23.1 µM [inhibitor, single point]. With `COc1ccc(-n2c(N)c(-c3nc4ccccc4n3C)sc2=S)cc1` the Potency was inconclusive: 10.3 µM [activator, partial curve]. With `Cc1ccc(-c2nc(C3CCN(S(=O)(=O)c4ccc(C(F)(F)F)cc4)CC3)no2)cc1` the Potency was inconclusive: 29.1 µM [activator, partial curve, poor fit]. In the case of `O=C(Nc1ccc(OC(=O)c2ccccc2)c(-c2nc3ccccc3s2)c1)c1ccccc1`, the Potency is reported as “inactive”. In the case of `Cc1ccc(N(CC(=O)NC2CCCCC2)C(=O)CCCC(=O)Nc2ccccn2)cc1`, the Potency is reported as “inactive”. In the case of `Cc1ccc2nc(-c3ccccc3)cc(C(=O)Nc3cccnc3)c2c1`, the Potency is reported as “inactive”. For `CCC(=O)N1CCc2cc(S(=O)(=O)CCC(=O)NCc3ccc(C)cc3)ccc21`, the Potency was “inactive”. In the case of `CCOC(=O)C1=C(COC(=O)[C@@H](NC(=O)c2cccc(C)c2)C(C)C)NC(=O)NC1C` (stereo partly specified), the Potency is reported as inconclusive: 20.6 µM [inhibitor, partial curve, poor fit]. For `O=S(=O)(NC1CCCCC1)c1cccc(-c2nnc(-c3ccccc3)o2)c1`, the Potency was inconclusive: 23.1 µM [inhibitor, partial curve]. With `COc1cc(C2C=C(c3cccs3)Nc3ncnn32)cc(OC)c1OC` (stereo unspecified) the Potency was inconclusive: 32.6 µM [inhibitor, single point]. For `Cc1cc(NC(=O)COc2ccccc2C(N)=O)no1`, the Potency was inconclusive: 18.3 µM [activator, partial curve]. For `CCc1nc2oc3ccccc3c(=O)c2c(=O)n1-c1ccccc1`, the Potency was inconclusive: 13 µM [activator, partial curve]. In the case of `Cc1nc2ccccn2c1/C(O)=C1\C(=O)C(=O)N(CCN2CCOCC2)C1c1cccs1` (stereo unspecified), the Potency is reported as “inactive”. With `COC(=O)c1sccc1NC(=O)Nc1ccccc1F` the Potency was “inactive”. For `Cc1ccc(SCCN2CCN(CCc3ccccc3)CCC2=O)cc1`, the Potency was “inactive”. With `COc1ccc(C(C(=O)NCCC(C)C)N(CCO)C(=O)c2snc(C(N)=O)c2N)cc1` (stereo unspecified) the Potency was inconclusive: 0.58 µM [inhibitor, single point]. For `FC(F)(F)c1cccc(Cc2noc(CN3CCCC(OCc4ccccn4)C3)n2)c1` (stereo unspecified), the Potency was inconclusive: 23.1 µM [inhibitor, partial curve, poor fit]. In the case of `COc1ccc(S(=O)(=O)N2CCOc3ccccc32)cc1`, the Potency is reported as inconclusive: 2.91 µM [inhibitor, full curve]. For `Nc1c(-c2cccc(Cl)c2)cnn1-c1ccccc1`, the Potency was inconclusive: 18.3 µM [activator, partial curve]. In the case of `O=C(CSc1n[nH]c(-c2ccccc2O)n1)N1CCOCC1`, the Potency is reported as inconclusive: 29.1 µM [activator, single point]. For `CN(C(=O)c1cccc(NC(=O)Cc2cccc([N+](=O)[O-])c2)c1)C1CC1`, the Potency was “inactive”. For `COC(=O)c1ccc(NC(=O)c2ccc3c(c2)C(=O)N(Cc2cccnc2)C3=O)cc1`, the Potency was “inactive”. With `CC(=O)c1cccc(NC(=O)C2COc3ccccc3O2)c1` (stereo unspecified) the Potency was inconclusive: 20.6 µM [activator, partial curve]. In the case of `CCOC(=O)C(=CNc1ccccc1Cl)C(=O)OCC`, the Potency is reported as “inactive”. For `Cc1ccc2cc(C3CC(c4ccco4)=NN3C(=O)CCC(=O)O)c(Cl)nc2c1` (stereo unspecified), the Potency was “inactive”. For `CCC1CCCCN1C(=O)COc1ccc2c3c(c(=O)oc2c1)CCC3` (stereo unspecified), the Potency was inconclusive: 25.9 µM [inhibitor, single point]. With `CCOc1ncccc1C(=O)Nc1ccc2c(c1)OCO2` the Potency was inconclusive: 25.9 µM [activator, partial curve, poor fit]. For `CCOC(=O)c1ccccc1NC(=O)c1ccc2c(=O)n3c(nc2c1)CCCCC3`, the Potency was inconclusive: 25.9 µM [inhibitor, single point]. For `COc1nc(C)ccc1-c1noc(-c2ccccn2)n1`, the Potency was inconclusive: 2.91 µM [activator, partial curve]. In the case of `Cc1cc(OC(C)C(=O)NCC(O)c2ccccc2)c2c(C)cc(=O)oc2c1` (stereo unspecified), the Potency is reported as “inactive”. With `COc1ccc(C(=O)Nc2cnn(Cc3ccc(Cl)cc3)c2)cc1OC` the Potency was inconclusive: 16.4 µM [inhibitor, partial curve, poor fit]. In the case of `CC(C)NS(=O)(=O)c1ccc(CCC(=O)N2CCCC2)cc1`, the Potency is reported as “inactive”. With `CCCNC(=O)C(=O)Nc1ccc(N(C)C)cc1` the Potency was inconclusive: 20.6 µM [activator, partial curve]. With `O=C(NCCOc1ccccc1)c1ccccc1[N+](=O)[O-]` the Potency was “inactive”. In the case of `COC(=O)c1cccc(Cn2c(Cl)c(/C=N/NC(=O)c3ccco3)sc2=O)c1`, the Potency is reported as “inactive”. For `CC1Cc2ccccc2N1C(=O)COc1cccc(-n2cnnn2)c1` (stereo unspecified), the Potency was inconclusive: 29.1 µM [inhibitor, single point]. For `O=C(Nc1ccccc1C(=O)Nc1ccccn1)c1ccccc1F`, the Potency was “inactive”. In the case of `CCCN1CCN(C(=O)C2CCN(c3nnc(C)c4c(C)n(-c5ccc(C)cc5)nc34)CC2)CC1`, the Potency is reported as “inactive”. In the case of `O=C(O)c1cc(S(=O)(=O)Nc2cc(Cl)ccc2Oc2ccccc2)ccc1O`, the Potency is reported as inconclusive: 29.1 µM [activator, single point]. For `COc1ccc(C(=O)c2ccccc2)c2c(O)ccc(C(=O)c3ccccc3)c12`, the Potency was inconclusive: 4.61 µM [inhibitor, partial curve]. With `C=CCN1c2ccccc2[C@]23C[C@@H](C(=O)OC)N(C(=O)c4cc(C)oc4C)C2=NC(C(=O)OC)=C(C(=O)OC)[C@H]13` the Potency was inconclusive: 29.1 µM [inhibitor, partial curve, poor fit]. For `Cn1cc(CC(=O)NCCN2CCOCC2)c2ccccc21`, the Potency was “inactive”. With `COc1ccc(OC)c(C(=O)COC(=O)C(CCSC)NC(=O)COc2ccccc2)c1` (stereo unspecified) the Potency was “inactive”. In the case of `CSc1ccccc1OCc1cc(C(=O)N2CCN(C3CCCC3)C(=O)C2)no1`, the Potency is reported as inconclusive: 11.6 µM [activator, partial curve]. In the case of `CCCCOc1ccc(C(=O)Nc2ccc(N3CCN(C(=O)C(C)C)CC3)cc2)cc1`, the Potency is reported as inconclusive: 11.6 µM [inhibitor, partial curve]. In the case of `CC(C)(C)N(Cc1ccccc1)C(=O)c1cccs1`, the Potency is reported as “inactive”. In the case of `COc1ccccc1N1CCN(C(=O)c2ccc3[nH]c(C)c(C)c3c2)CC1`, the Potency is reported as inconclusive: 0.82 µM [inhibitor, full curve, poor fit]. In the case of `CCOCCCNC(=O)c1cc(-c2cccnc2)nc2ccc(S(=O)(=O)N3CCC(C)CC3)cc12`, the Potency is reported as “inactive”. With `COc1ccc(/C=N/NC(=O)c2cccc([N+](=O)[O-])c2)cc1OC(=O)c1ccc(C)cc1` the Potency was “inactive”. For `CC(=O)Nc1ccc(N2CCCCC2)cc1`, the Potency was “inactive”. With `CC[C@@]1(C(=O)OC)N[C@H](CN(C)C(=O)c2ccccc2)[C@@H]2C(=O)N(Cc3ccccc3)C(=O)[C@@H]21` the Potency was “inactive”. For `CC1(C)CC2(CCO1)OC(=O)CC2C(=O)Nc1cccc2ccccc12` (stereo unspecified), the Potency was inconclusive: 25.9 µM [activator, single point]. With `CN(Cc1ccc(N(C)C)cc1)C(=O)c1cc2ccccc2o1` the Potency was inconclusive: 13 µM [activator, partial curve]. In the case of `Cc1c2c(nc3c(C(=O)NC4CC4)cnn13)CCCC2`, the Potency is reported as inconclusive: 23.1 µM [activator, single point]. In the case of `CC(=O)Nc1nc2c(s1)CCc1ccccc1-2`, the Potency is reported as inconclusive: 8.2 µM [activator, partial curve]. In the case of `COc1ccc2cc3cc(C(=O)NCCCN4CCc5ccccc5C4)sc3nc2c1`, the Potency is reported as inconclusive: 3.66 µM [activator, single point]. For `COC(=O)CN1C(=O)C(C)=C(c2ccc(C)cc2)S1(=O)=O`, the Potency was inconclusive: 0.651 µM [inhibitor, single point]. With `Cn1c(=O)c2c(nc(CN3CCN(Cc4ccccc4)CC3)n2Cc2ccc(Cl)cc2)n(C)c1=O` the Potency was active: 20.6 µM. With `OCCNc1nc(C2CC2)nc2c1nnn2Cc1ccccc1Cl` the Potency was “inactive”. In the case of `O=C(COC(=O)c1ccc([N+](=O)[O-])o1)Nc1cccc(S(=O)(=O)N2CCOCC2)c1`, the Potency is reported as inconclusive: 13 µM [activator, single point]. With `COc1ccc(S(=O)(=O)c2c(C)c(NS(=O)(=O)c3ccccc3)cc(C)c2O)cc1` the Potency was inconclusive: 29.1 µM [inhibitor, single point]. In the case of `O=C(NOCc1ccccc1)c1coc(-c2ccccc2)n1`, the Potency is reported as inconclusive: 18.3 µM [activator, single point]. For `CCOC(=O)c1c(C)n(C)c2ccc(OC)c(NS(=O)(=O)c3ccc(Cl)s3)c12`, the Potency was inconclusive: 0.116 µM [inhibitor, full curve]. For `COc1cc(-c2cc(=O)c3c(O)c(OC)c(OC)c(OC)c3o2)cc(OC)c1OC`, the Potency was inconclusive: 4.11 µM [inhibitor, full curve]. In the case of `CCC(=O)NCCc1nc2cc(NC(=O)c3ccco3)ccc2n1C`, the Potency is reported as inconclusive: 6.51 µM [activator, full curve, poor fit]. In the case of `O=[N+]([O-])c1ccc(/C=N/NC(=S)Nc2ccc(Cl)cc2Cl)s1`, the Potency is reported as active: 8.2 µM. For `CCOC(=O)c1c(N)sc(-c2ccccc2)c1C`, the Potency was inconclusive: 18.4 µM [activator, single point]. For `Cc1ccc2nc(NC(=O)CSCC(=O)Nc3cc(C)on3)sc2c1`, the Potency was inconclusive: 10.3 µM [activator, partial curve]. For `Nc1ccc(N2CCCCC2)c2nonc12`, the Potency was “inactive”.
